No constants are given. Whether binding was seen depends on the method and setting. Some binding calls cover weakened binding; strength is not graded here. Sequences can lack the tags named with a protein.

The experiment has as its target T1, human Siglec 15-HIS tagged recombinant protein (human) (UniProt Q6ZMC9).
T1 sequence (looked up): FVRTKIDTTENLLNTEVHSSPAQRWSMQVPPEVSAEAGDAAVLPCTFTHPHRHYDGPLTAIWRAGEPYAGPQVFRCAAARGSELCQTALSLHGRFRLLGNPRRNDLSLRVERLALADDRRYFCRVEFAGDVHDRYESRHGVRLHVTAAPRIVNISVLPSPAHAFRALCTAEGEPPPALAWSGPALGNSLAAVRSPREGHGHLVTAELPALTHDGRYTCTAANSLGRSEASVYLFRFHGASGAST
Nature of the experiment: ELISA for the antibody in monkey plasma; His-tag human Siglec-15 as capture, anti-human IgG HRP. (In general: In an ELISA, binding on a coated surface is turned into a signal by an enzyme label.)

B1: 2020EP032-H11 IgG (antibody, V domains shown)
VH: EVQLVESGGGLVKPGGSLRLSCAASGFTFSSYSMNWVRQAPGKGLEWVSSISSSSSYIYYADSVKGRFTISRDNAKNSLYLQMNSLRAEDTAVYYCARDYRGYSGQNYYGMDVWGQGTTVTVSS
VL: QSALTQPPSVSAAPRQKVTISCSGSSSNIGNNDVSWYQQLPGTVPKLLIYDNNKRPSGIPDRFSGSKSGTSASLGITGLQTGDEADYYCGVWDSSLSGYVFGTGTKVTVL
notes: IgG form expressed in ExpiHEK293-F cells; detected with anti-hFc; also called 2020EP32-H11; H11 mAb
For B1, the binding result is “binds”.

The record behind these values is patent US20240336683A1 (published 2024).
